# Data: the supplement of paper PMC4604168 (melanoma cell lines)
# The list shows a part of the results. Repeats are few or missing, and single values can be far off.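 Cells were imaged in 1,536-well plates, and nuclei stained with an antibody against cleaved PARP were counted against all DNA-stained nuclei to give the apoptosis fraction. Screening doses were chosen to leave most cells alive, and resting and induced cleaved-PARP levels differ strongly between cell lines.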
# Tested on: COLO792
# Assay: cleaved PARP positive nuclei fraction relative to DMSO control; melanoma cells; higher = more apoptosis
# Conditions: library dose: low library concentration; 72 h
row,SMILES,cleaved PARP positive nuclei fraction
1,"Cc1cc(N2CCOCC2)cc2[nH]c(-c3c(NC[C@@H](O)c4cccc(Cl)c4)cc[nH]c3=O)nc12 + O=c1cc(-c2cccc3c2Sc2ccccc2S3)oc(N2CCOCC2)c1 [KU55933] (first compound 0.2 µM, partner dose 1 µM)",119%
2,"C#Cc1cccc(Nc2ncnc3cc(OCCOC)c(OCCOC)cc23)c1 [erlotinib] + O=c1cc(-c2cccc3c2Sc2ccccc2S3)oc(N2CCOCC2)c1 [KU55933] (first compound 0.8 µM, partner dose 1 µM)",103%
3,"Cn1c(Nc2ccc(C(F)(F)F)cc2)nc2cc(Oc3ccnc(-c4ncc(C(F)(F)F)[nH]4)c3)ccc21 + O=C1NC(=O)/C(=C/c2ccc(-c3ccc(F)cc3O)o2)S1 [AS252424] (first compound 0.08 µM, partner dose 1 µM)",280%
4,"NC(=O)Nc1cc(-c2cccc(F)c2)sc1C(=O)N[C@H]1CCCNC1 + CCCCCCCCCCCC1=C(O)C(=O)C=C(O)C1=O [Embelin] (first compound 0.02 µM, partner dose 1.2 µM)",76.7%
5,"C=CCn1c(=O)c2cnc(Nc3ccc(N4CCN(C)CC4)cc3)nc2n1-c1cccc(C(C)(C)O)n1 + COc1cc2ncnc(Nc3ccc(Oc4ccccc4)cc3)c2cc1OC [SrcI1] (first compound 0.02 µM, partner dose 2 µM)",27.5%
6,"Cn1c(Nc2ccc(C(F)(F)F)cc2)nc2cc(Oc3ccnc(-c4ncc(C(F)(F)F)[nH]4)c3)ccc21 + N#Cc1c(O)c2c(-c3ccc(-c4ccccc4O)cc3)csc2[nH]c1=O [A769662] (first compound 0.08 µM, partner dose 2 µM)",307%
7,"Cn1nnc2c(C(N)=O)ncn2c1=O [temozolomide] + COc1cc(N2CCC(N3CCN(C)CC3)CC2)ccc1Nc1ncc(Cl)c(Nc2ccccc2S(=O)(=O)C(C)C)n1 [NVP-TAE684] (first compound 2 µM, partner dose 0.08 µM)",92.2%
8,"O=C(CCCCCCC(=O)Nc1ccccc1)NO [vorinostat] + COc1ccc(COc2ccc(Cc3cnc(N)nc3N)cc2OC)cc1 [GW2580] (first compound 0.08 µM, partner dose 1 µM)",115%
9,"C#Cc1cccc(Nc2ncnc3cc(OCCOC)c(OCCOC)cc23)c1 [erlotinib] + Oc1cc(-c2nc(-c3ccccc3)[nH]c2-c2ccncc2)ccc1Cl [L779450] (first compound 0.8 µM, partner dose 0.2 µM)",104%
10,"C#Cc1cccc(Nc2ncnc3cc(OCCOC)c(OCCOC)cc23)c1 [erlotinib] + N#Cc1c(O)c2c(-c3ccc(-c4ccccc4O)cc3)csc2[nH]c1=O [A769662] (first compound 0.8 µM, partner dose 2 µM)",265%
11,"COCC[n+]1c2c(n(Cc3cnccn3)c1C)C(=O)c1ccccc1C2=O + COc1ccc(-c2ccc3c(N4CCOCC4)nc(N4C[C@@H](C)O[C@@H](C)C4)nc3n2)cc1CO [KU0063794] (first compound 0.0004 µM, partner dose 0.02 µM)",270%
12,"COc1cc(Nc2ncc(F)c(Nc3ccc4c(n3)NC(=O)C(C)(C)O4)n2)cc(OC)c1OC [Tamatinib] + O=C1NC(=O)/C(=C/c2ccc(-c3ccc(F)cc3O)o2)S1 [AS252424] (first compound 0.4 µM, partner dose 1 µM)",256%
13,"OCCn1cc(-c2cnc3nnn(Cc4ccc5ncccc5c4)c3n2)cn1 + Cc1cc([N+](=O)[O-])ccc1NS(=O)(=O)c1cc(Cl)ccc1Cl [FH535] (first compound 1 µM, partner dose 1 µM)",117%
14,"Nc1cccc2c1CN(C1CCC(=O)NC1=O)C2=O (stereo unspecified) [lenalidomide] + CCN(CC)CCCCNc1ncc2cc(-c3cc(OC)cc(OC)c3)c(NC(=O)NC(C)(C)C)nc2n1 [PD173074] (first compound 1 µM, partner dose 0.1 µM)",149%
15,"C[C@@H]1CCN(C(=O)CC#N)C[C@@H]1N(C)c1ncnc2[nH]ccc12 + O=C(O)C(=O)Nc1sc2c(c1C(=O)O)CCNC2 [TCS401] (first compound 1 µM, partner dose 1.66667 µM)",97.1%
16,"OCCn1cc(-c2cnc3nnn(Cc4ccc5ncccc5c4)c3n2)cn1 + COc1ccc2c(c1)CCC1C2CCC2(C)C(NCCCCCCN3C(=O)C=CC3=O)CCC12 [U73122] (first compound 1 µM, partner dose 0.4 µM)",84.8%

# Quoted from the listing:
# Value for C#Cc1cccc(Nc2ncnc3cc(OCCOC)c(OCCOC)cc23)c1 [erlotinib] + N#Cc1c(O)c2c(-c3ccc(-c4ccccc4O)cc3)csc2[nH]c1=O [A769662] (first compound 0.8 µM, partner dose 2 µM) under cleaved PARP positive nuclei fraction: 265%
# Value for OCCn1cc(-c2cnc3nnn(Cc4ccc5ncccc5c4)c3n2)cn1 + COc1ccc2c(c1)CCC1C2CCC2(C)C(NCCCCCCN3C(=O)C=CC3=O)CCC12 [U73122] (first compound 1 µM, partner dose 0.4 µM) under cleaved PARP positive nuclei fraction: 84.8%
